According to article PMC8516933:
No constants are given. Whether binding was seen depends on the method and setting. In cells and extracts the contact can be indirect. Some binding calls cover weakened binding; strength is not graded here. Where a sequence is shown, tags or fusion partners need not be part of it.

By UniProt entry, the sequences of proteins in these tests, tags left out.
UniProt O35613: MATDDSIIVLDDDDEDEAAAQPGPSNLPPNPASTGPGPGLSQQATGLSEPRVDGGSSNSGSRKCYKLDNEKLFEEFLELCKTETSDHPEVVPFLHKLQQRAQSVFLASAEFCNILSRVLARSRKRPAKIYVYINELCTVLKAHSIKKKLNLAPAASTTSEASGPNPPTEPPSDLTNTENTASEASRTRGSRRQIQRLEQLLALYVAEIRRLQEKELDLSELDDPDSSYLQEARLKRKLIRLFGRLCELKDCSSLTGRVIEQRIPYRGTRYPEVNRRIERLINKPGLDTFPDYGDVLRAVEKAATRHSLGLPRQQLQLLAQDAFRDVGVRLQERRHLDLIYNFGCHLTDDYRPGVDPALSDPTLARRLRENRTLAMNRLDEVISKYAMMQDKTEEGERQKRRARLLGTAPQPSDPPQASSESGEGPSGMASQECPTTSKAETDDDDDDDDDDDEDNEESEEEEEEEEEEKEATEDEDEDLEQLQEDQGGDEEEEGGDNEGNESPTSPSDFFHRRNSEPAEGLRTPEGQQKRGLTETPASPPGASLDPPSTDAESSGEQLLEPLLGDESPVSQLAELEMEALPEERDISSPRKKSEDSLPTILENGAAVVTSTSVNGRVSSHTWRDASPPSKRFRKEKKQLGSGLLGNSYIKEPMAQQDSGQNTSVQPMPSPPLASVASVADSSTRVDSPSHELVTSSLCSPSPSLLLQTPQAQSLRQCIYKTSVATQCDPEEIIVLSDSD

T1: Morc3 wild type, 3xFLAG tagged (rescue construct) (UniProt F7BJB9)
T1 sequence: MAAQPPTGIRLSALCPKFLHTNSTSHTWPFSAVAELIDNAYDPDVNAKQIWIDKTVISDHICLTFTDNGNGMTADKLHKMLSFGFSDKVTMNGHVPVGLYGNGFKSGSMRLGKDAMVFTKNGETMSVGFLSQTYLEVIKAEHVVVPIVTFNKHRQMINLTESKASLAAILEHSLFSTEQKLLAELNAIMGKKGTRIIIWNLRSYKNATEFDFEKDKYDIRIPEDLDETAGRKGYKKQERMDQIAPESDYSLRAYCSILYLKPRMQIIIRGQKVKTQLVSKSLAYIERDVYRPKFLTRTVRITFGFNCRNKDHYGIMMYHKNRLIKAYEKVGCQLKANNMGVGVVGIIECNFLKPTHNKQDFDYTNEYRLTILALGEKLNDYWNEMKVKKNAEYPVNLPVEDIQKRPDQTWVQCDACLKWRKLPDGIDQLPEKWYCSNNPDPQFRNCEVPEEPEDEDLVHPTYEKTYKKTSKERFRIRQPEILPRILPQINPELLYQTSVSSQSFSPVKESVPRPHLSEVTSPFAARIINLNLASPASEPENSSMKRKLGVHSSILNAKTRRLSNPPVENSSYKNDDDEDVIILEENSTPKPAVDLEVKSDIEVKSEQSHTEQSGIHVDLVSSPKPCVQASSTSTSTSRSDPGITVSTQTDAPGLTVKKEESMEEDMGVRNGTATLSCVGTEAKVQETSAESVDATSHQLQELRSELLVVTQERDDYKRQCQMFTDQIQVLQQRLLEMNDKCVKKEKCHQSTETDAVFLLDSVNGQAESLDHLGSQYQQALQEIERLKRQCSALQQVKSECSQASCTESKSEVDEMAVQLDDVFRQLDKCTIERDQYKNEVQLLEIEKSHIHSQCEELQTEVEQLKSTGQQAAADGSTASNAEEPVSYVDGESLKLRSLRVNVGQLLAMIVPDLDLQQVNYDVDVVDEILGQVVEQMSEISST

T2: Morc3 ATP binding mutant (G101A), 3xFLAG tagged (UniProt F7BJB9)
T2 sequence: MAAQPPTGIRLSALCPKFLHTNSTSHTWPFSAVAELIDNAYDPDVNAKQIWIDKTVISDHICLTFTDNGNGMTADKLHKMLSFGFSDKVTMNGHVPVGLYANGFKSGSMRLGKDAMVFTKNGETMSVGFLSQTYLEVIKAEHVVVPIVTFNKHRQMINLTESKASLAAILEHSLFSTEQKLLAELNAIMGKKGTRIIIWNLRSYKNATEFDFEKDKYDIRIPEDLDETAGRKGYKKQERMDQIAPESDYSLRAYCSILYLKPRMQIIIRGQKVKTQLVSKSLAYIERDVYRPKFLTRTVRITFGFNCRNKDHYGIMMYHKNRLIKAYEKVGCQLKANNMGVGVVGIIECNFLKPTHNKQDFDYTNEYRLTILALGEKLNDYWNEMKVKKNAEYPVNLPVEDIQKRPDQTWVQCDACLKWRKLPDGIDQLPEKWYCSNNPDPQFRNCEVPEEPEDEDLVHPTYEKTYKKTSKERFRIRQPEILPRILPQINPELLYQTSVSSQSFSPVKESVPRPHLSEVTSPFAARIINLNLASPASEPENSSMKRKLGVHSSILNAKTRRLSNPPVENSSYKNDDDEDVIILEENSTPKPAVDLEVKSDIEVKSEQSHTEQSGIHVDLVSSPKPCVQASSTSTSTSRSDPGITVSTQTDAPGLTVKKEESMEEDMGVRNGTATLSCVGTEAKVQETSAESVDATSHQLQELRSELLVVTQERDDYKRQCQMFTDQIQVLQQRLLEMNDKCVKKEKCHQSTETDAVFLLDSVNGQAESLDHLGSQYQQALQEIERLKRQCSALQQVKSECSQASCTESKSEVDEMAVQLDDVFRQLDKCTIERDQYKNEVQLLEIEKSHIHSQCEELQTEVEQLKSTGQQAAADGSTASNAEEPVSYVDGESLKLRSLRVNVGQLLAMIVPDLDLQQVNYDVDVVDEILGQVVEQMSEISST


Key:
Assay in all cases: co-IP; nuclear extract of rescue ES cell lines, benzonase-digested, 300 mM NaCl, 25 mM NEM; 3xFLAG bait precipitated with anti-FLAG M2 magnetic beads, 4 h; washes with 300 mM NaCl IP buffer; western blot
[1] = molecular target: T1, Morc3 wild type, 3xFLAG tagged (rescue construct)
[2] = molecular target: T2, Morc3 ATP binding mutant (G101A), 3xFLAG tagged
[3] = molecular target: Daxx wild type, 3xFLAG tagged (rescue construct) (UniProt O35613)

binding [1]	binding [2]	binding [3]	Molecule
binds	no binding	–	Daxx (endogenous) (from UniProt O35613 1-739)
–	–	binds	Morc3 (endogenous, untagged) (protein, UniProt F7BJB9 1-942) MAAQPPTGIRLSALCPKFLHTNSTSHTWPFSAVAELIDNAYDPDVNAKQIWIDKTVISDHICLTFTDNGNGMTADKLHKMLSFGFSDKVTMNGHVPVGLYGNGFKSGSMRLGKDAMVFTKNGETMSVGFLSQTYLEVIKAEHVVVPIVTFNKHRQMINLTESKASLAAILEHSLFSTEQKLLAELNAIMGKKGTRIIIWNLRSYKNATEFDFEKDKYDIRIPEDLDETAGRKGYKKQERMDQIAPESDYSLRAYCSILYLKPRMQIIIRGQKVKTQLVSKSLAYIERDVYRPKFLTRTVRITFGFNCRNKDHYGIMMYHKNRLIKAYEKVGCQLKANNMGVGVVGIIECNFLKPTHNKQDFDYTNEYRLTILALGEKLNDYWNEMKVKKNAEYPVNLPVEDIQKRPDQTWVQCDACLKWRKLPDGIDQLPEKWYCSNNPDPQFRNCEVPEEPEDEDLVHPTYEKTYKKTSKERFRIRQPEILPRILPQINPELLYQTSVSSQSFSPVKESVPRPHLSEVTSPFAARIINLNLASPASEPENSSMKRKLGVHSSILNAKTRRLSNPPVENSSYKNDDDEDVIILEENSTPKPAVDLEVKSDIEVKSEQSHTEQSGIHVDLVSSPKPCVQASSTSTSTSRSDPGITVSTQTDAPGLTVKKEESMEEDMGVRNGTATLSCVGTEAKVQETSAESVDATSHQLQELRSELLVVTQERDDYKRQCQMFTDQIQVLQQRLLEMNDKCVKKEKCHQSTETDAVFLLDSVNGQAESLDHLGSQYQQALQEIERLKRQCSALQQVKSECSQASCTESKSEVDEMAVQLDDVFRQLDKCTIERDQYKNEVQLLEIEKSHIHSQCEELQTEVEQLKSTGQQAAADGSTASNAEEPVSYVDGESLKLRSLRVNVGQLLAMIVPDLDLQQVNYDVDVVDEILGQVVEQMSEISST
